For one molecule, binding results are on record in PMC6294567, “The C-terminal D/E-rich domain of MBD3 is a putative Z-DNA mimic that competes for Zα DNA-binding activity” (Nucleic Acids Research, 2018).

These are yes or no findings as the source states them, for the method shown. In cells and extracts the contact can be indirect. Binding can be weak; no strength is given.

Assay [1] concerns the target FLAG-MBD3 variant with a truncation of the DE-rich domain (human). Put plainly: co-IP; FLAG-MBD3 or truncation mutants expressed in 293F cells, 48 h; lysate (0.3% NP-40, Benzonase) on anti-FLAG M2 affinity gel overnight at 4°C, FLAG peptide elution; blot with anti-ADAR1.
Assay [2] deals with FLAG-MBD3 variant with a truncation of the MBD domain (human). The description is as above.

B1: endogenous ADAR1 (adenosine deaminase acting on RNA), isoform not named in the results (protein, UniProt P55265 1-1226)
chain: MNPRQGYSLSGYYTHPFQGYEHRQLRYQQPGPGSSPSSFLLKQIEFLKGQLPEAPVIGKQTPSLPPSLPGLRPRFPVLLASSTRGRQVDIRGVPRGVHLRSQGLQRGFQHPSPRGRSLPQRGVDCLSSHFQELSIYQDQEQRILKFLEELGEGKATTAHDLSGKLGTPKKEINRVLYSLAKKGKLQKEAGTPPLWKIAVSTQAWNQHSGVVRPDGHSQGAPNSDPSLEPEDRNSTSVSEDLLEPFIAVSAQAWNQHSGVVRPDSHSQGSPNSDPGLEPEDSNSTSALEDPLEFLDMAEIKEKICDYLFNVSDSSALNLAKNIGLTKARDINAVLIDMERQGDVYRQGTTPPIWHLTDKKRERMQIKRNTNSVPETAPAAIPETKRNAEFLTCNIPTSNASNNMVTTEKVENGQEPVIKLENRQEARPEPARLKPPVHYNGPSKAGYVDFENGQWATDDIPDDLNSIRAAPGEFRAIMEMPSFYSHGLPRCSPYKKLTECQLKNPISGLLEYAQFASQTCEFNMIEQSGPPHEPRFKFQVVINGREFPPAEAGSKKVAKQDAAMKAMTILLEEAKAKDSGKSEESSHYSTEKESEKTAESQTPTPSATSFFSGKSPVTTLLECMHKLGNSCEFRLLSKEGPAHEPKFQYCVAVGAQTFPSVSAPSKKVAKQMAAEEAMKALHGEATNSMASDNQPEGMISESLDNLESMMPNKVRKIGELVRYLNTNPVGGLLEYARSHGFAAEFKLVDQSGPPHEPKFVYQAKVGGRWFPAVCAHSKKQGKQEAADAALRVLIGENEKAERMGFTEVTPVTGASLRRTMLLLSRSPEAQPKTLPLTGSTFHDQIAMLSHRCFNTLTNSFQPSLLGRKILAAIIMKKDSEDMGVVVSLGTGNRCVKGDSLSLKGETVNDCHAEIISRRGFIRFLYSELMKYNSQTAKDSIFEPAKGGEKLQIKKTVSFHLYISTAPCGDGALFDKSCSDRAMESTESRHYPVFENPKQGKLRTKVENGEGTIPVESSDIVPTWDGIRLGERLRTMSCSDKILRWNVLGLQGALLTHFLQPIYLKSVTLGYLFSQGHLTRAICCRVTRDGSAFEDGLRHPFIVNHPKVGRVSIYDSKRQSGKTKETSVNWCLADGYDLEILDGTRGTVDGPRNELSRVSKKNIFLLFKKLCSFRYRRDLLRLSYGEAKKAARDYETAKNYFKKGLKDMGYGNWISKPQEEKNFYLCPV
As to B1, the binding entry in assay [1] and in assay [2] was “binds” in each case.
